Experimental data as given in patent US20240327423A1, “A SERIES OF PYRROLE DERIVATIVES AND THEIR PREPARATION METHOD AND THERAPEUTIC USE” (SHENZHEN SUNGENING BIO-MEDICAL CO., LTD, priority 2020, published 2024).
At least one compound was matched to its structure with a doubt left.

Test system: Aspergillus fumigatus ATCCMYA-4690 (AF293)
Experiment: Survival rate experiment I of mouse bloodstream infection model with Aspergillus fumigatus
Format: in vivo
Details: immunosuppressed male CD-1 mouse, 3 mg/kg orally twice daily
Experimental: Test Case 5: Survival Rate Experiment I of Mouse Bloodstream Infection Model with Aspergillus fumigatus • Experimental animals: male CD-1 mouse, 6-8 weeks old, 10 animals per group. • Induction of immunosuppression: the day of infection is defined as day 0, and mouses are injected intraperitoneally with corresponding doses of cyclophosphamide on day −4 (150 mg/kg), day −1 (100 mg/kg) and day 2 (100 mg/kg). • Microbial pathogen: Aspergillus fumigatus ATCCMYA-4690 (AF293). • Collection conditions of inoculum: culture on SDA culture plates, incubate at 25° C. for at least 7 days, collect with PBS+0.1% Tween 20, and count microscopically; • Inoculation level, route and volume: 3.60E+05 CFU/mouse, tail vein injection, injection volume of 100 μL/mouse; • Treatment: Treatment is started 24 hours after infection, and test compounds are dissolved in PEG400 (0.3 mg/mL), and used for administration orally to mouses at 3 mg/kg, twice daily for 6 days. The administrated mouses are observed for 8 hours.

Cc1cc(-c2ccccc2)c(C(=O)C(=O)Nc2cc(F)c3c(c2)OC[C@H]2CN(c4ncc(F)cn4)CCN32)n1C [Example 5]
survival time of mouses: prolong the survival time
